{"source": "patent US20230165835A1", "about": "“METHODS OF TREATING ACUTE LUNG INJURY USING EBSELEN” (SOUND PHARMACEUTICALS INC., priority 2020, published 2023)", "test": "Cytotoxicity / cell viability in Vero E6 cells", "assay_type": "cell-based", "conditions": "African green monkey", "data": [{"smiles": "CCC(CC)COC(=O)[C@H](C)N[P@](=O)(OC[C@H]1O[C@@](C#N)(c2ccc3c(N)ncnn23)[C@H](O)[C@@H]1O)Oc1ccccc1", "note": "[remdesivir]", "values": [{"measurement": "CC50", "result": "> 10", "unit": "µM"}]}]}
